# PubChem BioAssay AID1224829 | NIAID – 2016
# Purpose: 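Follow-up of TLR4-NF-kappaB regulators using six separate siRNAs for each gene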 (follow-up of hits)
# System: mouse RAW264.7 G9 macrophage reporter cells
# Knock-down reagent: single siRNA against mouse genes, 100 nM
# Timing: 2 days of siRNA knock-down, then 40 min of LPS before fixing
# Challenge: LPS (Salmonella minnesota R595) at 10 ng/ml
# Read-out: 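Imaging of GFP-p65 after 40 min of LPS; nuclear over perinuclear ring intensity ratio, scaled to plate median and non-targeting control wells, given as z-score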
# Reading the numbers: p65 translocation z-score and gene median z-score, per vendor: higher = more nuclear NF-kappaB p65 after LPS
# Hit rule: 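Active means the replicate-mean z-score lies beyond plus or minus 2, in either direction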
# Calls: active = changed p65 translocation (either direction); inactive = no clear change
# Shown is an unselected part of about 3,800 reagents tested. 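Calls cover raised and lowered translocation; gene median uses one vendor's three siRNAs; qiagen siRNAs acted more weakly than ambion siRNAs.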 Reagents against one gene are numbered here.
target gene,siRNA no.,siRNA vendor or control pool,"p65 translocation z-score, replicate mean","p65 translocation z-score, replicate 1","p65 translocation z-score, replicate 2","gene median z-score, per vendor",Call
Zdhhc9 (GeneID 208884),1,ambion single siRNA,0.226,0.617,-0.165,-2.1,inactive
Zdhhc9 (GeneID 208884),2,ambion single siRNA,-3.4,-2.87,-3.93,-2.1,active
Zdhhc9 (GeneID 208884),3,ambion single siRNA,-2.1,-2.8,-1.39,-2.1,active
Zdhhc9 (GeneID 208884),4,qiagen single siRNA,3.18,2.75,3.62,2.38,active
Zdhhc9 (GeneID 208884),5,qiagen single siRNA,2.91,2.01,3.8,2.38,active
Zdhhc9 (GeneID 208884),6,qiagen single siRNA,0.0809,-0.3,0.461,2.38,inactive
Thap11 (GeneID 59016),1,ambion single siRNA,-5.37,-6.46,-4.28,-4.05,active
Thap11 (GeneID 59016),2,ambion single siRNA,-4.07,-4.32,-3.83,-4.05,active
Thap11 (GeneID 59016),3,ambion single siRNA,-1.81,-1.8,-1.83,-4.05,inactive
Thap11 (GeneID 59016),4,qiagen single siRNA,4.03,2.55,5.52,2.55,active
Thap11 (GeneID 59016),5,qiagen single siRNA,2.75,1.18,4.32,2.55,active
Thap11 (GeneID 59016),6,qiagen single siRNA,-0.854,-0.854,,2.55,inactive
Or2h1 (GeneID 258470),1,ambion single siRNA,-2.27,-2.5,-2.03,-0.824,active
Or2h1 (GeneID 258470),2,ambion single siRNA,-0.824,-0.808,-0.841,-0.824,inactive
Or2h1 (GeneID 258470),3,ambion single siRNA,-0.0325,-0.276,0.211,-0.824,inactive
Or2h1 (GeneID 258470),4,qiagen single siRNA,0.0743,0.227,-0.0783,0.242,inactive
Or2h1 (GeneID 258470),5,qiagen single siRNA,-0.525,-1.31,0.258,0.242,inactive
Or2h1 (GeneID 258470),6,qiagen single siRNA,0.923,0.339,1.51,0.242,inactive
Fev (GeneID 260298),1,ambion single siRNA,3.72,3.91,3.52,1.34,active
Fev (GeneID 260298),2,ambion single siRNA,0.112,1.34,-1.12,1.34,inactive
Fev (GeneID 260298),3,ambion single siRNA,-3.77,-3.77,,1.34,active
Fev (GeneID 260298),4,qiagen single siRNA,1.41,1.61,1.2,-0.166,inactive
Fev (GeneID 260298),5,qiagen single siRNA,-0.166,-0.781,0.448,-0.166,inactive
Fev (GeneID 260298),6,qiagen single siRNA,-3.26,-3.57,-2.95,-0.166,active
Cyp4a10 (GeneID 13117),1,ambion single siRNA,0.0661,-1.22,1.35,-1.62,inactive
Cyp4a10 (GeneID 13117),2,ambion single siRNA,-2.01,-2.01,,-1.62,active
Cyp4a10 (GeneID 13117),3,ambion single siRNA,-3.69,-3.69,,-1.62,active
Cyp4a10 (GeneID 13117),4,qiagen single siRNA,1.26,1.11,1.42,1.42,inactive
Cyp4a10 (GeneID 13117),5,qiagen single siRNA,3.28,3.62,2.93,1.42,active
Cyp4a10 (GeneID 13117),6,qiagen single siRNA,-5.45,-5.45,,1.42,active
Trhr (GeneID 22045),1,ambion single siRNA,1.51,2.46,0.554,-2.47,inactive
Trhr (GeneID 22045),2,ambion single siRNA,-3.77,-4.57,-2.97,-2.47,active
Trhr (GeneID 22045),3,ambion single siRNA,-3.76,-1.97,-5.55,-2.47,active
Trhr (GeneID 22045),4,qiagen single siRNA,0.486,0.469,0.504,-0.767,inactive
Trhr (GeneID 22045),5,qiagen single siRNA,-2.37,-1.43,-3.31,-0.767,active
Trhr (GeneID 22045),6,qiagen single siRNA,-0.767,-0.38,-1.15,-0.767,inactive
Gphr (GeneID 67549),1,ambion single siRNA,0.62,1.14,0.102,-2.01,inactive
Gphr (GeneID 67549),2,ambion single siRNA,-4.12,-4.12,,-2.01,active
Gphr (GeneID 67549),3,ambion single siRNA,-11.7,-11.7,,-2.01,active
Gphr (GeneID 67549),4,qiagen single siRNA,0.6,0.948,0.253,-1.75,inactive
Gphr (GeneID 67549),5,qiagen single siRNA,-7.24,-7.24,,-1.75,active
Gphr (GeneID 67549),6,qiagen single siRNA,-3.7,-1.75,-5.66,-1.75,active
Or2y1g (GeneID 258463),1,ambion single siRNA,-0.318,-1.91,1.27,-1.28,inactive
Or2y1g (GeneID 258463),2,ambion single siRNA,-1.28,-1.1,-1.45,-1.28,inactive
Or2y1g (GeneID 258463),3,ambion single siRNA,-0.686,0.38,-1.75,-1.28,inactive
Or2y1g (GeneID 258463),4,qiagen single siRNA,-0.0567,-0.619,0.506,0.506,inactive
Or2y1g (GeneID 258463),5,qiagen single siRNA,0.721,0.583,0.859,0.506,inactive
Or2y1g (GeneID 258463),6,qiagen single siRNA,-9.88,-9.88,,0.506,active
Ephx2 (GeneID 13850),1,ambion single siRNA,-0.317,0.261,-0.896,-0.896,inactive
Ephx2 (GeneID 13850),2,ambion single siRNA,-2.09,0.782,-4.96,-0.896,active
Ephx2 (GeneID 13850),3,ambion single siRNA,-2.38,-2.38,,-0.896,active
Ephx2 (GeneID 13850),4,qiagen single siRNA,1.45,2.49,0.424,-1.24,inactive
Ephx2 (GeneID 13850),5,qiagen single siRNA,-2.59,-2.7,-2.48,-1.24,active
Ephx2 (GeneID 13850),6,qiagen single siRNA,-2.08,-4.17,0.000546,-1.24,active

Part of the list above, set out differently:
Ephx2 (GeneID 13850) #2, siRNA vendor or control pool ambion single siRNA
- p65 translocation z-score, replicate mean: -2.09
- p65 translocation z-score, replicate 1: 0.782
- p65 translocation z-score, replicate 2: -4.96
- gene median z-score, per vendor: -0.896
- Call: active

Ephx2 (GeneID 13850) #3, siRNA vendor or control pool ambion single siRNA
- p65 translocation z-score, replicate mean: -2.38
- p65 translocation z-score, replicate 1: -2.38
- gene median z-score, per vendor: -0.896
- Call: active

Ephx2 (GeneID 13850) #4, siRNA vendor or control pool qiagen single siRNA
- p65 translocation z-score, replicate mean: 1.45
- p65 translocation z-score, replicate 1: 2.49
- p65 translocation z-score, replicate 2: 0.424
- gene median z-score, per vendor: -1.24
- Call: inactive

Ephx2 (GeneID 13850) #5, siRNA vendor or control pool qiagen single siRNA
- p65 translocation z-score, replicate mean: -2.59
- p65 translocation z-score, replicate 1: -2.7
- p65 translocation z-score, replicate 2: -2.48
- gene median z-score, per vendor: -1.24
- Call: active
